Experimental data as given in patent US20260315446A1, “ANTIFUNGAL COMPOUNDS AND USES THEREOF” (priority 2023, published 2026).
Like-named read-outs stand apart in the source and are kept apart here.

System: C. neoformans growth versus IL-2 in murine T cells
Assay: Therapeutic index score (immunosuppressive fold change to antifungal fold change relative to FK506)
Set-up: species or system Cryptococcus neoformans; mouse
Source text: To assess the therapeutic potential for these compounds, it was important to develop an approach to score and rank them based on antifungal and immunosuppressive activities. The therapeutic index score (TIscore) is a ratio of the immunosuppressive fold change to the antifungal fold change, with all values relative to the baseline FK506 activity (FIG. 6B). A TIscore of >1.0 indicates an increase in fungal specificity because the fold change of the immunosuppressive reduction is greater than the antifungal activity reduction. As an example, JH-FK-05 is 20-fold reduced for antifungal activity but about 180-fold reduced for immunosuppression. Therefore, the TIscore of JH-FK-05 is 9.1 (TIscore=182/20). The top two analogs were JH-FK-02 (TIscore=9.7) and JH-FK-05 (TIscore=9.1). Due to the similar TIscore, JH-FK-05 was prioritized to advance to animal trials on the merit of more pronounced antifungal activity compared to JH-FK-02.
Based on the in vitro fungal and mammalian calcineurin inhibition data, the panel of FK520 analogs was assessed and ranked. Therapeutic index (TI) scores were used to quantify the effects of structural modification on the compounds (Table 8). Therapeutic index scores were calculated for each analog as the ratio of relative change in immunosuppressive and antifungal activities compared to FK506 as previously utilized (see, I-Toy M J, et at. 2022. mBio 13:e0104922). This ratio of therapeutic benefit and host toxicity, or fungal and mammalian calcineurin inhibition, allowed us to quantify and rank these analogs. […] This is the greatest TI found within the library and allowed us to identify JH-FK-08 as a lead candidate for an in vivo study. Tolerability of JH-FK-08 was assessed by monitoring animal responses to drug dosing across 14 days, including changes in weight, fur condition, and behavior. A maximum dose of 40 mg/kg was tested in once a day dosing, and due to solubility limitations, the tolerability of JH-FK-08 at 60 and 80 mg/kg total daily doses was assessed by dosing two equal doses per day (FIG. 14). […] It should be noted that analogs JH-FK-12 and JH-FK-23 are also promising candidates with respective Tis of 24.7 and 24.5.

[1] = Table 13, Example 4, FK506 = 1.0
[2] = Example 3, C. neoformans H99, FK506 = 1.0

`CC[C@@H]1/C=C(\C)C(O)[C@H](C)C[C@H](OC)[C@H]2O[C@@](O)(C(=O)C(=O)N3CCCC[C@H]3C(=O)O[C@H](/C(C)=C/[C@@H]3CC[C@@H](O)[C@H](OC)C3)[C@H](C)[C@@H](O)CC1=O)[C@H](C)C[C@@H]2OC` (single isomer, unassigned) [JH-FK-11] was tested, and the “Therapeutic Index Score” value (Table 12, Example 4, FK506 = 1.0) was 11.8 and the “Therapeutic Index Score” value [1] was 11.8.

`CC[C@@H]1/C=C(\C)C[C@H](C)C[C@H](OC)[C@H]2O[C@@](O)(C(=O)C(=O)N3CCCC[C@H]3C(=O)O[C@H](/C(C)=C/[C@@H]3CC[C@@H](O)[C@H](OC)C3)[C@H](C)[C@@H](O)CC1=O)[C@H](C)C[C@@H]2OC` [FK520, reference compound] was tested, and the “Therapeutic Index Score” value was 4.4 and the Therapeutic index was 3.3.

`CC[C@@H]1/C=C(\C)C[C@H](C)C[C@H](OC)[C@H]2O[C@@](O)(C(=O)C(=O)N3CCCC[C@H]3C(=O)O[C@H](/C(C)=C/[C@@H]3CC[C@@H](O)[C@H](OC)C3)[C@H](C)[C@@H](O)C/C1=N/NC(C)=O)[C@H](C)C[C@@H]2OC` [JH-FK-05] was tested, and the “therapeutic index score (TIscore)” value (Example 1, C. neoformans MIC and IL-2 IC50, FK506 = 1.0) was 9.1 and the “Therapeutic Index Score” value [1] was 9.1.

In the case of `CC[C@@H]1/C=C(\C)C[C@H](C)C[C@H](OC)[C@H]2O[C@@](O)(C(=O)C(=O)N3CCCC[C@H]3C(=O)O[C@H](/C(C)=C/C3CC[C@@H](O)[C@H](OC)C3)[C@H](C)[C@@H](O)C/C1=N/NC(=O)OC)[C@H](C)C[C@@H]2OC` (stereo partly drawn) [JH-FK-08], the Therapeutic index [2] is reported as 29.6 and the TIscore (Example 4 discussion) is reported as 15.5.

In the case of `CC[C@@H]1/C=C(\C)C[C@H](C)C[C@H](OC)[C@H]2O[C@@](O)(C(=O)C(=O)N3CCCC[C@H]3C(=O)O[C@H](/C(C)=C/C3CC[C@@H](O)[C@H](OC)C3)[C@H](C)[C@@H](O)C/C1=N/NS(=O)(=O)c1ccc(C)cc1)[C@H](C)C[C@@H]2OC` (stereo partly drawn) [JH-FK-13], the Therapeutic index [2] is reported as “Undefined”.
